Laboratory results: article PMC11884657, “Ru(II)-Fenamic-Based Complexes as Promising Human Ovarian Antitumor Agents: DNA Interaction, Cellular Uptake, and Three-Dimensional Spheroid Models” (Inorganic Chemistry, 2025)

Tests used:
Conditions in all cases: selectivity index
[1] = tested on: MDA-MB-231 (breast) cancer cells; test: MTT cytotoxicity assay, MDA-MB-231
[2] = tested on: A2780cis (ovarian cisplatin-resistant) cancer cells; test: MTT cytotoxicity assay, A2780cis
[3] = tested on: A2780 (ovarian) cancer cells; test: MTT cytotoxicity assay, A2780
[4] = tested on: A549 (lung) cancer cells; test: MTT cytotoxicity assay, A549

Structure (SMILES) | SI2 = IC50(MRC-5)/IC50(MDA-MB-231) [1] | SI4 = IC50(MRC-5)/IC50(A2780cis) [2] | SI3 = IC50(MRC-5)/IC50(A2780) [3] | SI1 = IC50(MRC-5)/IC50(A549) [4]
[Cl][Ru-4]12([Cl])([n+]3ccccc3-c3cccc[n+]31)[P+](c1ccccc1)(c1ccccc1)CCC[P+]2(c1ccccc1)c1ccccc1 [[RuCl2(bipy)(dppp)], cis-[RuCl2(bipy)(dppp)]] | 1.57 | 1.15 | 1.46 | –
F[P-](F)(F)(F)(F)F.c1ccc(Nc2ccccc2C2=[O+][Ru-4]34([O]2)([n+]2ccccc2-c2cccc[n+]23)[P+](c2ccccc2)(c2ccccc2)CCC[P+]4(c2ccccc2)c2ccccc2)cc1 [complex 1, [Ru(Fen)(bipy)(dppp)]PF6] | 0.86 | 2.57 | 3.74 | 0.62
Cc1cccc(Nc2ccccc2C2=[O+][Ru-4]34([O]2)([n+]2ccccc2-c2cccc[n+]23)[P+](c2ccccc2)(c2ccccc2)CCC[P+]4(c2ccccc2)c2ccccc2)c1C.F[P-](F)(F)(F)(F)F [complex 2, [Ru(MFen)(bipy)(dppp)]PF6] | 0.58 | 2.09 | 2.56 | 0.51
Cc1c(Cl)cccc1Nc1ccccc1C1=[O+][Ru-4]23([O]1)([n+]1ccccc1-c1cccc[n+]12)[P+](c1ccccc1)(c1ccccc1)CCC[P+]3(c1ccccc1)c1ccccc1.F[P-](F)(F)(F)(F)F [complex 3, [Ru(TFen)(bipy)(dppp)]PF6] | 0.96 | 1.33 | 1.59 | 0.41
FC(F)(F)c1cccc(Nc2ccccc2C2=[O+][Ru-4]34([O]2)([n+]2ccccc2-c2cccc[n+]23)[P+](c2ccccc2)(c2ccccc2)CCC[P+]4(c2ccccc2)c2ccccc2)c1.F[P-](F)(F)(F)(F)F [complex 4, [Ru(FFen)(bipy)(dppp)]PF6] | 1.86 | 1.02 | 2.03 | 0.63
